Experimental data: article PMC12477100
No constants are given. Whether binding was seen depends on the method and setting. In cells and extracts the contact can be indirect. Some entries that bind do so weakly or less than the wild type.

Sequences of proteins named here, by UniProt entry; tags and fusion partners are left off.
UniProt O94921: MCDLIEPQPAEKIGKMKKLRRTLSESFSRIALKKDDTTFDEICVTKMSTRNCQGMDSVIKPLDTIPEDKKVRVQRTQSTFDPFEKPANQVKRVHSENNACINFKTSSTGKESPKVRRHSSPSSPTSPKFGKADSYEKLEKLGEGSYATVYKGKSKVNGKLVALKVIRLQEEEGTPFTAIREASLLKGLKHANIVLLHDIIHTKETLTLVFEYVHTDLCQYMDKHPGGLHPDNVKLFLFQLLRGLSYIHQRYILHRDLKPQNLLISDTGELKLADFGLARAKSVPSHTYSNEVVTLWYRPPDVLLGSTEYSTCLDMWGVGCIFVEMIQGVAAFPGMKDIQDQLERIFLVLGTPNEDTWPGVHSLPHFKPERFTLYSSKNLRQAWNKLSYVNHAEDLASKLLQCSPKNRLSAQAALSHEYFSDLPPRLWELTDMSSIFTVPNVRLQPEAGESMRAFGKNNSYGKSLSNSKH

Target: small nuclear ribonucleoprotein polypeptide G (human (endogenous in A549)) (UniProt P62308)
Assay: co-IP; Co-IP in A549 cells; immunoprecipitation using a SNRPG antibody, blot for the partner

Row | binding | Substance
1 | binds | Wilms tumor 1 (from UniProt P19544 1-449)
2 | no binding | cyclin-dependent kinase 14 (from UniProt O94921 1-469)
